# According to the supplement of paper PMC8728848:
# This is one part of the list.
# B1: PX14375A-pdi-503-28-503 (Parabacteroides distasonis) (protein)
# chain: PLGSPEAGDISEERQAFLRLTAVYSVMKDFRYTWSMQCFGDVLSNDATYSGSSNDAQTFTLLENYQYQADHTEILNKYRYSYQCINKANLFIRDMEMADDALFSKYDKEQMIGEAKFIRAYTYFELVKTFGGVPCYTGVLDLDHERLGRASVEEIYSVIEQDLNDAVSVLPKKSEVANYESSYAGRITKGAAIAMQTRIYLYEKKYDEVKKAFEKFQNECGGEYSLVAPEDYTWQFSLDGEHCSSSILEVNMYNSSTQSSYNVNNGNRHVLMSMPRNMTIGFGCAQPTQALADAYDAEGDVIRKKTTLLSTEEAIEIETAAKGDVAPVTDDRTGWYNRKLYLAPGQREENRGNNQPTNLRLIRLAEVYLNYAEACYFSGDIANAQKYLNEVRSHVNLAPKNHTGSQLFEDIMNERHLEFGMEGFRFFDVVRVGWGEKVFNGTKKAEFGAKTPFSAGAEVLPIPQTEIDISDGLITN
# Tests used:
# Test in all cases: glycan array binding signal (z-score within array); higher = stronger binding
# Conditions in all cases: glycan notation: IUPAC condensed, linker removed
# Gal(b1-4)Glc = target: Gal(b1-4)Glc
# Outline: (§1)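 The Consortium for Functional Glycomics database supplied 3228 glycan arrays, of which those lacking an available protein sequence were dropped. The binding signal, a within-array Z-score, was averaged across arrays of the same protein sequence and across linkers. Negative scores can be read as non-binding.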
# Gal(b1-4)Glc6S = target: Gal(b1-4)Glc6S
# Outline: as §1
# Gal(b1-4)GlcNAc = target: Gal(b1-4)GlcNAc
# Outline: as §1
# [1] = target: Gal(b1-4)GlcNAc(a1-6)Gal(b1-4)GlcNAc
# Outline: as §1
# Gal(b1-4)GlcNAc(b1-2)Man = target: Gal(b1-4)GlcNAc(b1-2)Man
# Outline: as §1
# [2] = target: Gal(b1-4)GlcNAc(b1-2)Man(a1-3)Man(b1-4)GlcNAc(b1-4)GlcNAc
# Outline: as §1
# [3] = target: Gal(b1-4)GlcNAc(b1-2)Man(a1-3)[Gal(b1-4)GlcNAc(b1-2)Man(a1-6)]Man(b1-4)GlcNAc(b1-4)GlcNAc
# Outline: as §1
# [4] = target: Gal(b1-4)GlcNAc(b1-2)Man(a1-3)[Gal(b1-4)GlcNAc(b1-2)Man(a1-6)]Man(b1-4)GlcNAc(b1-4)[Fuc(a1-6)]GlcNAc
# Outline: as §1
# [5] = target: Gal(b1-4)GlcNAc(b1-2)Man(a1-3)[Gal(b1-4)GlcNAc(b1-2)Man(a1-6)][Gal(b1-4)GlcNAc(b1-4)]Man(b1-4)GlcNAc(b1-4)[Fuc(a1-6)]GlcNAc
# Outline: as §1
# [6] = target: Gal(b1-4)GlcNAc(b1-2)Man(a1-3)[Gal(b1-4)GlcNAc(b1-2)Man(a1-6)][GlcNAc(b1-4)]Man(b1-4)GlcNAc(b1-4)[Fuc(a1-6)]GlcNAc
# Outline: as §1
# [7] = target: Gal(b1-4)GlcNAc(b1-2)Man(a1-3)[GlcNAc(b1-2)Man(a1-6)]Man(b1-4)GlcNAc(b1-4)GlcNAc
# Outline: as §1
# [8] = target: Gal(b1-4)GlcNAc(b1-2)Man(a1-3)[GlcNAc(b1-4)][Gal(b1-4)GlcNAc(b1-2)Man(a1-6)]Man(b1-4)GlcNAc(b1-4)GlcNAc
# Outline: as §1
# [9] = target: Gal(b1-4)GlcNAc(b1-2)Man(a1-3)[Man(a1-6)]Man(b1-4)GlcNAc(b1-4)GlcNAc
# Outline: as §1
# [10] = target: Gal(b1-4)GlcNAc(b1-2)Man(a1-6)Man(b1-4)GlcNAc(b1-4)GlcNAc
# Outline: as §1
# [11] = target: Gal(b1-4)GlcNAc(b1-2)Man(a1-6)[GlcNAc(b1-2)Man(a1-3)]Man(b1-4)GlcNAc(b1-4)GlcNAc
# Outline: as §1
# [12] = target: Gal(b1-4)GlcNAc(b1-2)Man(a1-6)[Man(a1-3)]Man(b1-4)GlcNAc(b1-4)GlcNAc
# Outline: as §1
# [13] = target: Gal(b1-4)GlcNAc(b1-2)[Gal(b1-4)GlcNAc(b1-4)]Man(a1-3)[Gal(b1-4)GlcNAc(b1-2)Man(a1-6)]Man(b1-4)GlcNAc(b1-4)GlcNAc
# Outline: as §1
# [14] = target: Gal(b1-4)GlcNAc(b1-2)[Gal(b1-4)GlcNAc(b1-4)]Man(a1-3)[Gal(b1-4)GlcNAc(b1-2)[Gal(b1-4)GlcNAc(b1-6)]Man(a1-6)]Man(b1-4)GlcNAc(b1-4)GlcNAc
# Outline: as §1
# [15] = target: Gal(b1-4)GlcNAc(b1-2)[Gal(b1-4)GlcNAc(b1-4)]Man(a1-3)[GlcNAc(b1-4)][Gal(b1-4)GlcNAc(b1-2)Man(a1-6)]Man(b1-4)GlcNAc(b1-4)GlcNAc
# Outline: as §1
# [16] = target: Gal(b1-4)GlcNAc(b1-2)[Gal(b1-4)GlcNAc(b1-4)]Man(a1-3)[GlcNAc(b1-4)][Gal(b1-4)GlcNAc(b1-2)[Gal(b1-4)GlcNAc(b1-6)]Man(a1-6)]Man(b1-4)GlcNAc(b1-4)GlcNAc
# Outline: as §1
# [17] = target: Gal(b1-4)GlcNAc(b1-2)[Gal(b1-4)GlcNAc(b1-6)]Man(a1-6)[Gal(b1-4)GlcNAc(b1-2)Man(a1-3)]Man(b1-4)GlcNAc(b1-4)GlcNAc
# Outline: as §1
# [18] = target: Gal(b1-4)GlcNAc(b1-2)[Gal(b1-4)GlcNAc(b1-6)]Man(a1-6)[Gal(b1-4)GlcNAc(b1-2)Man(a1-3)]Man(b1-4)GlcNAc(b1-4)[Fuc(a1-6)]GlcNAc
# Outline: as §1
# [19] = target: Gal(b1-4)GlcNAc(b1-2)[Gal(b1-4)GlcNAc(b1-6)]Man(a1-6)[GlcNAc(b1-4)][Gal(b1-4)GlcNAc(b1-2)Man(a1-3)]Man(b1-4)GlcNAc(b1-4)GlcNAc
# Outline: as §1
# [20] = target: Gal(b1-4)GlcNAc(b1-2)[Gal(b1-4)GlcNAc(b1-6)]Man(a1-6)[GlcNAc(b1-4)][Gal(b1-4)GlcNAc(b1-2)[Gal(b1-4)GlcNAc(b1-4)]Man(a1-3)]Man(b1-4)GlcNAc(b1-4)[Fuc(a1-6)]GlcNAc
# Outline: as §1
# [21] = target: Gal(b1-4)GlcNAc(b1-3)Gal(b1-3)GalNAc
# Outline: as §1
# [22] = target: Gal(b1-4)GlcNAc(b1-3)Gal(b1-3)GlcNAc
# Outline: as §1
# [23] = target: Gal(b1-4)GlcNAc(b1-3)Gal(b1-4)Glc
# Outline: as §1
# [24] = target: Gal(b1-4)GlcNAc(b1-3)Gal(b1-4)GlcNAc
# Outline: as §1
# [25] = target: Gal(b1-4)GlcNAc(b1-3)Gal(b1-4)GlcNAc(b1-2)Man(a1-3)[Gal(b1-4)GlcNAc(b1-3)Gal(b1-4)GlcNAc(b1-2)Man(a1-6)]Man(b1-4)GlcNAc(b1-4)GlcNAc
# Outline: as §1
# [26] = target: Gal(b1-4)GlcNAc(b1-3)Gal(b1-4)GlcNAc(b1-2)Man(a1-3)[Gal(b1-4)GlcNAc(b1-3)Gal(b1-4)GlcNAc(b1-2)Man(a1-6)]Man(b1-4)GlcNAc(b1-4)[Fuc(a1-6)]GlcNAc
# Outline: as §1
# [27] = target: Gal(b1-4)GlcNAc(b1-3)Gal(b1-4)GlcNAc(b1-2)[Gal(b1-4)GlcNAc(b1-3)Gal(b1-4)GlcNAc(b1-6)]Man(a1-6)[Gal(b1-4)GlcNAc(b1-3)Gal(b1-4)GlcNAc(b1-2)Man(a1-3)]Man(b1-4)GlcNAc(b1-4)GlcNAc
# Outline: as §1
# [28] = target: Gal(b1-4)GlcNAc(b1-3)Gal(b1-4)GlcNAc(b1-2)[Gal(b1-4)GlcNAc(b1-3)Gal(b1-4)GlcNAc(b1-6)]Man(a1-6)[Gal(b1-4)GlcNAc(b1-3)Gal(b1-4)GlcNAc(b1-2)Man(a1-3)]Man(b1-4)GlcNAc(b1-4)[Fuc(a1-6)]GlcNAc
# Outline: as §1
# [29] = target: Gal(b1-4)GlcNAc(b1-3)Gal(b1-4)GlcNAc(b1-3)Gal(b1-4)GlcNAc
# Outline: as §1
# [30] = target: Gal(b1-4)GlcNAc(b1-3)Gal(b1-4)GlcNAc(b1-3)Gal(b1-4)GlcNAc(b1-2)Man(a1-3)[Gal(b1-4)GlcNAc(b1-3)Gal(b1-4)GlcNAc(b1-3)Gal(b1-4)GlcNAc(b1-2)Man(a1-6)]Man(b1-4)GlcNAc(b1-4)GlcNAc
# Outline: as §1
# [31] = target: Gal(b1-4)GlcNAc(b1-3)Gal(b1-4)GlcNAc(b1-3)Gal(b1-4)GlcNAc(b1-2)Man(a1-3)[Gal(b1-4)GlcNAc(b1-3)Gal(b1-4)GlcNAc(b1-3)Gal(b1-4)GlcNAc(b1-2)Man(a1-6)]Man(b1-4)GlcNAc(b1-4)[Fuc(a1-6)]GlcNAc
# Outline: as §1
# [32] = target: Gal(b1-4)GlcNAc(b1-3)Gal(b1-4)GlcNAc(b1-3)Gal(b1-4)GlcNAc(b1-2)[Gal(b1-4)GlcNAc(b1-3)Gal(b1-4)GlcNAc(b1-3)Gal(b1-4)GlcNAc(b1-6)]Man(a1-6)[Gal(b1-4)GlcNAc(b1-3)Gal(b1-4)GlcNAc(b1-3)Gal(b1-4)GlcNAc(b1-2)Man(a1-3)]Man(b1-4)GlcNAc(b1-4)[Fuc(a1-6)]GlcNAc
# Outline: as §1
# [33] = target: Gal(b1-4)GlcNAc(b1-3)Gal(b1-4)GlcNAc(b1-3)Gal(b1-4)GlcNAc(b1-3)Gal(b1-4)GlcNAc(b1-2)Man(a1-3)[Gal(b1-4)GlcNAc(b1-3)Gal(b1-4)GlcNAc(b1-3)Gal(b1-4)GlcNAc(b1-3)Gal(b1-4)GlcNAc(b1-2)Man(a1-6)]Man(b1-4)GlcNAc(b1-4)GlcNAc
# Outline: as §1
binder,measurement,setting,value
B1,glycan array binding signal (z-score),Gal(b1-4)Glc,-0.065
same,glycan array binding signal (z-score),Gal(b1-4)Glc6S,0.523
same,glycan array binding signal (z-score),Gal(b1-4)GlcNAc,-0.156
same,glycan array binding signal (z-score),[1],-0.261
same,glycan array binding signal (z-score),Gal(b1-4)GlcNAc(b1-2)Man,-0.034
same,glycan array binding signal (z-score),[2],0.165
same,glycan array binding signal (z-score),[3],-0.224
same,glycan array binding signal (z-score),[4],0.093
same,glycan array binding signal (z-score),[5],0.362
same,glycan array binding signal (z-score),[6],-0.722
same,glycan array binding signal (z-score),[7],-0.186
same,glycan array binding signal (z-score),[8],-0.321
same,glycan array binding signal (z-score),[9],-0.824
same,glycan array binding signal (z-score),[10],-0.148
same,glycan array binding signal (z-score),[11],1.37
same,glycan array binding signal (z-score),[12],-0.741
same,glycan array binding signal (z-score),[13],-0.496
same,glycan array binding signal (z-score),[14],-0.685
same,glycan array binding signal (z-score),[15],-0.167
same,glycan array binding signal (z-score),[16],-0.171
same,glycan array binding signal (z-score),[17],0.103
same,glycan array binding signal (z-score),[18],0.011
same,glycan array binding signal (z-score),[19],-0.235
same,glycan array binding signal (z-score),[20],-0.729
same,glycan array binding signal (z-score),[21],-0.168
same,glycan array binding signal (z-score),[22],-0.513
same,glycan array binding signal (z-score),[23],-0.348
same,glycan array binding signal (z-score),[24],-0.064
same,glycan array binding signal (z-score),[25],5.38
same,glycan array binding signal (z-score),[26],0.658
same,glycan array binding signal (z-score),[27],0.548
same,glycan array binding signal (z-score),[28],0.187
same,glycan array binding signal (z-score),[29],0.128
same,glycan array binding signal (z-score),[30],2.49
same,glycan array binding signal (z-score),[31],0.437
same,glycan array binding signal (z-score),[32],0.285
same,glycan array binding signal (z-score),[33],-0.168

# Rewritten tab-delimited: entries from further up.
binder	measurement	setting	value
B1	glycan array binding signal (z-score)	[9]	-0.824
same	glycan array binding signal (z-score)	[10]	-0.148
same	glycan array binding signal (z-score)	[11]	1.37
same	glycan array binding signal (z-score)	[12]	-0.741
same	glycan array binding signal (z-score)	[13]	-0.496
same	glycan array binding signal (z-score)	[14]	-0.685
same	glycan array binding signal (z-score)	[15]	-0.167
same	glycan array binding signal (z-score)	[16]	-0.171
same	glycan array binding signal (z-score)	[17]	0.103
same	glycan array binding signal (z-score)	[18]	0.011
same	glycan array binding signal (z-score)	[19]	-0.235
